From PMC12847786
Results are given in words; binding and its absence hold for the method and conditions named. In cells and extracts the contact can be indirect. Here binding means that the protein was enriched with, or labelled near, the bait; the list need not be complete.

Target: T1, Cellular communication network factor 1 (CCN1) (UniProt P18406)
T1 sequence: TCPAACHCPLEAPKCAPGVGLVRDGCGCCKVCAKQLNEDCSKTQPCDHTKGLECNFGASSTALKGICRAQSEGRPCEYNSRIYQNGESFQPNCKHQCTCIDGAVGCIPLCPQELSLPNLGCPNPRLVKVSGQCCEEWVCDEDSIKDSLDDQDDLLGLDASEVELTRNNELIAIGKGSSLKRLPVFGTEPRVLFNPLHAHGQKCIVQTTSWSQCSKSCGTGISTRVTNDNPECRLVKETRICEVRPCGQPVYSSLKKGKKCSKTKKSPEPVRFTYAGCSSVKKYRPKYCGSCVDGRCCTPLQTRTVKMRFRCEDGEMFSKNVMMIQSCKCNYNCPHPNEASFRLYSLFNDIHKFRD
Test: affinity purification with mass spectrometry; lysate in IP lysis buffer, anti-CCN1 antibody or control IgG overnight at 4 °C, magnetic beads, SDS-PAGE, gel bands digested with trypsin, LC-MS/MS; hits compared with IgG control and overlapped with BioGRID

integrin αvβ5 (mouse (endogenous in BMDMs)) (complex)
binding: binds
